From the supplement of paper PMC3334620
Whole data set: some 33,000 sequences, median “E-score (-0.5 to 0.5)” near -0.016, cut for the highest 2% near 0.3. Some of the results follow.

biological target: T1, Yer184c (UniProt P39961); assay: PBM E-score (8-mer binding enrichment) (E-score (-0.5 to 0.5)); higher = stronger / more preferred TF binding; conditions: protein concentration: 100 nM; construct: GST-full length
T1 sequence: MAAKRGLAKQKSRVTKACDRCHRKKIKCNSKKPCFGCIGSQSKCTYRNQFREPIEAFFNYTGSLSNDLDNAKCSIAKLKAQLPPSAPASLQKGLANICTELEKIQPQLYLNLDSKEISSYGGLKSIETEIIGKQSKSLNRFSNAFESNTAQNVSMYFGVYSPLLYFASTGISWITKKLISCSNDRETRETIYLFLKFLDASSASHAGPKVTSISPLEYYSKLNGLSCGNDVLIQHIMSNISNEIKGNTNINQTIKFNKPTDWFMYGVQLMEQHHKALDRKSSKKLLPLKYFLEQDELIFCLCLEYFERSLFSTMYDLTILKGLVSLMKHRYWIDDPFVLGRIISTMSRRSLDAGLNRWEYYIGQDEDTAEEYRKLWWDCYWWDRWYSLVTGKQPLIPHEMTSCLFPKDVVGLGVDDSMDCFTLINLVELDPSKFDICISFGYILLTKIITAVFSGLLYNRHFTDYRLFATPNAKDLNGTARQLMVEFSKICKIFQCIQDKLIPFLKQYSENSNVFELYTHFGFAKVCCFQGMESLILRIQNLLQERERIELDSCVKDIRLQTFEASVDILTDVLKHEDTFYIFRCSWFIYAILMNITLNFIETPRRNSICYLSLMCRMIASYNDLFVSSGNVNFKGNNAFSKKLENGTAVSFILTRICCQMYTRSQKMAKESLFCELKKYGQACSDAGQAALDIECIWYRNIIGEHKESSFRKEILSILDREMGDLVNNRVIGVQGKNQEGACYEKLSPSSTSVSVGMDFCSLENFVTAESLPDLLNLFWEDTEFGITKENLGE
Method in brief: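 E-scores (a modified Wilcoxon-Mann-Whitney statistic) were assigned by the Universal PBM Analysis Suite to every ungapped eight-base word pooled with its reverse complement. The input came from universal all-10-mer Agilent arrays made double-stranded by primer extension and probed with GST-tagged yeast transcription factors at about 100-200 nM. Fluorescent anti-GST detected bound protein, and masliner normalised the scans.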

Sequence	PBM E-score
ACGTGGTC	-0.221
AGTTAATG	0.0389
GCAATCAA	0.0352
CCGCGACA	-0.00477
ATTACCCC	-0.102
TACAATGA	-0.00708
GGTGAGGA	-0.0261
CTAAATAA	0.15
CGGTCATA	0.0882
AAGCACGT	0.00984
TAGCAAGA	0.0272
ATTTGGAC	0.0275
GCTACTAC	0.11
AATCCAGA	0.191
ATGCGGCG	0.0251
GTCCTGAA	-0.0168
AAACTGTT	0.173
AACTCGTG	-0.003
CTGGACAC	-0.296
AACATTCT	0.0981
CAGAAGAA	-0.0789
ACTAAAAT	0.169
TCGGACGA	0.278
AGCAACTG	0.00852
CTATTCCA	-0.0104

Sequence	PBM E-score
AATCGCCC	-0.0889
AGGATCAT	-0.0359
GCGGGGTA	-0.0321
AGCCCGGG	0.268
AGAACTAC	3e-05
CACCGCTG	-0.227
GAAGCCAA	-0.135
CGCAAAGA	0.0479
ATTAATGC	-0.00255
GAATGCAC	0.0993
ACCCGCTC	-0.343
GCTGCTCA	-0.169
ATGGATCG	0.114
CACAAGAG	-0.0851
ATAGGGAA	-0.0565
GGCACTCA	-0.335
ATGGCTCG	-0.0279
CAGCATGC	-0.0481
CGACAAGA	0.089
TGCGCGCA	-0.007
CTCACTCA	-0.0792
ATCCTTCC	-0.223
CATAGAGA	-0.12
CCGGACAG	0.324
ACCACCGC	-0.285

Sequence	PBM E-score
CAATTACA	0.11
AGACGCTA	-0.0684
AATGGCAA	0.108
CCCGCCTC	-0.22
CCCGGAAG	0.259
AGGTCACG	-0.176
GGTAGGAC	-0.0934
ATATTAGC	0.159
ATAGCGGC	0.0486
CCTAGCAC	-0.103
AATGACAC	-0.126
CTCGACGC	0.134
TAAGATTA	0.0934
CCAGATGG	-0.224
CCATCTAC	-0.15
ACGTTCAC	-0.064
CTGTACAC	-0.0897
ACTATAGC	-0.169
CGGAAATC	0.315
CTGTGAAC	0.00307
GGCCCCTA	-0.357
CTTTAGCC	0.206
ATAGTGGA	-0.00347
CATCGTGA	-0.0261
CGTTCGTC	0.0163

Sequence	PBM E-score
GACAACGA	0.16
GAGATGCC	0.0528
ATCAATAC	0.0586
TAGGTCGA	0.0761
CCCTTATC	-0.163
GTAGGCTA	-0.0673
ATACAACA	0.0721
ACAAACGG	0.206
AGAGCTCC	-0.193
ATCGGCAG	0.247
ACTCACTA	0.159
AAGCGCGT	-0.0847
AAGAGTAG	0.013
ACATTCGC	-0.0692
ACCAACGT	-0.163
TGAGGAAA	0.0193
CGTGAAGC	-0.118
AAGTGGGT	-0.0898
AAGGACGC	-0.0674
ATGAAAAA	0.22
AGTTTCAG	-0.105
ACCGGTCT	-0.124
ACGGCTAC	0.171
CCGGACCC	0.235
CAGTTAAG	0.0757

Sequence	PBM E-score
ACATGCGC	-0.0466
AAGGGGAC	-0.0399
TGCTATAA	-0.00769
AATAAATT	0.294
GTAATCTA	0.196
CACCATGG	-0.216
ACGCGCTC	0.0382
ATCTACAA	0.032
CCCTGTCG	-0.115
AGCCTAAA	0.0463
ATCAGGTA	-0.00532
AAGTGGAC	-0.14
ATAGTGAG	-0.0847
CACATGCA	-0.138
ATACAGAC	0.0388
ATAGAGAC	-0.116
GTAGATCA	0.0991
GAGATAAC	-0.00305
GTAAGTAA	-0.112
CGAGTAGC	0.13
AAAAGATC	-0.0129
TGAAGTAA	-0.0474
GAGCTCCC	-0.139
ACTTAACC	0.103
AGCGCCAC	-0.234

Sequence	PBM E-score
ATCAGGAG	0.128
AGCTTCAC	-0.106
CTTATTCC	0.0275
CGGCGACC	0.237
TACCTGGA	-0.0658
AAGGTGCG	-0.207
CCGGGACA	0.287
GCTGTACC	-0.116
AGGATTAG	-0.0216
ATTTGTTC	0.227
ACTCTCTG	-0.119
CGCACGCC	0.0567
GGTCGTAA	0.0853
GAGTGTCC	0.119
AGGCATAC	-0.175
ACATTCAA	0.0156
AATAACCT	-0.0516
GAGGTGAC	0.0807
CCATCATA	-0.113
AGCTTACC	-0.0423
AATGGCCC	-0.247
CGGAATGC	0.249
ACGTCACG	-0.168
AAAGCAGT	0.039
GAGACAAC	0.0432

Sequence	PBM E-score
AGGTTAAT	0.102
ACTCAGAA	0.134
AACGAGGG	-0.234
CTTATCTC	0.053
CAGACCTG	-0.184
AATGCCAA	-0.029
ACCTGCCC	-0.125
AACGGTCC	-0.0409
AAACAAGC	0.11
GCTATACC	-0.124
AGCACCTG	-0.0415
CGCTCACC	-0.208
GGCCCGAC	0.0318
AACTCTTA	0.136
GACATCGA	0.0281
ATGTATTA	0.137
CGCACCGC	-0.0998
ATCGAGGA	0.106
ACACTCAA	0.067
AAGCTACC	0.0307
TACTCGCA	0.0751
GTTACGGA	0.206
TCGATCCA	-0.148
ATGCGCGA	-0.0505
ACTGGAGA	-0.0719

Sequence	PBM E-score
ATCACAAG	0.00864
ATCAGCAA	0.0156
AAAGACCC	0.118
ATGCTTGA	0.025
GAAGGCTA	-0.0973
CTATGAAC	0.0391
GCTGAAAA	0.136
AACACCAC	-0.0481
AGTAGTCA	-0.0486
CGGATCCA	0.263
AGAGGACT	-0.298
AGGTTTAC	-0.104
ATCCGATA	0.266
GGGTATCA	-0.0667
CTCCCCTC	-0.186
CACGACAA	-0.0609
AAGTACAA	-0.0462
CTCTTTTC	-0.0404
CTGAGAAA	-0.0692
AACACGAA	0.199
GACGTGTA	-0.0892
CTCCCGGA	0.243
AAGATGCG	0.0137
GGCTCAAA	0.204
CCAACCTC	-0.138

Sequence	PBM E-score
ACTCGCCC	-0.232
AAGAGCTA	-0.00838
CTTGGCGA	-0.211
AGACCAAC	-0.108
CAAGGATG	-0.187
GCGATCAC	-0.19
AAAAATAT	0.24
ACACGTTC	-0.193
TGACATCA	-0.0407
ACCATCGA	-0.121
GTCAGCAA	-0.0872
AGCCATTA	0.0764
AAGAAACC	0.129
TAATTAGA	0.149
AATGCCGG	0.35
CATAGGCC	-0.111
CTACATAA	-0.0544
GTTGCAAC	0.0994
TATAACCA	0.0124
CTAAAGTC	-0.0167
CCTGGAGC	-0.322
ACTATTAC	0.139
ACGGCCGG	0.372
ACATTTGA	0.223
TAAGCGAA	0.0677

Sequence	PBM E-score
AATCTTGC	0.206
GCCAGCTA	-0.223
CGGGTGAA	0.243
GGCCGGAC	0.294
CCCGCGCG	0.241
GAGAGAAA	0.0947
GGACCCAA	-0.081
GCTATTCA	0.0897
TAACCGTA	-0.0723
ATCCAGGG	-0.205
AGTCCGGG	0.212
CGTCGCCA	-0.211
CTGCCTAC	0.124
ATTGATTG	0.174
GCTTTAAC	0.0368
ATAAATTG	0.254
CCATTCCC	-0.135
CGTGAACG	-0.101
CTAGGATA	-0.0114
ACGCTATG	-0.221
AAAACGTA	-0.0331
CGTTCACC	-0.0824
GACTTTGC	-0.0657
AAAACATA	0.158
AGTATCTC	0.0414

Sequence	PBM E-score
AATACGTG	0.0311
GACGGATC	0.115
CCGATCAA	0.184
GGATGAAC	0.101
CCCTAAAA	-0.238
GTCGGCCA	-0.145
ACCAAGCG	-0.238
AACGGACT	0.14
ACGGCACA	0.0865
GTCCTCCA	-0.165
ACATCCAA	-0.0302
GTTTATTA	0.225
GGGCGGAA	0.0682
CCTAGGAG	-0.0738
TAATAGTA	0.173
ATCGGAAG	0.211
AAAAGATT	0.094
CAGAGCTA	-0.25
CGCACAAG	-0.0592
GGTGCCTA	-0.0856
CAATACAA	-0.00303
CACATTTC	0.101
CAGGGAGC	-0.304
CATAACTA	0.0337
GAGGAGAA	-0.159

Reformatted: entries from further up
Sequence | PBM E-score
GCAATCAA | 0.0352
ATTACCCC | -0.102
TACAATGA | -0.00708
CGGTCATA | 0.0882
TAGCAAGA | 0.0272
GCTACTAC | 0.11
AATCCAGA | 0.191
AACTCGTG | -0.003
AACATTCT | 0.0981
AGCAACTG | 0.00852
GCGGGGTA | -0.0321
CGCAAAGA | 0.0479
ACCCGCTC | -0.343
GGCACTCA | -0.335
ATGGCTCG | -0.0279
CATAGAGA | -0.12
CCGGACAG | 0.324
CCCGCCTC | -0.22
CCCGGAAG | 0.259
ATATTAGC | 0.159
ATAGCGGC | 0.0486
TAAGATTA | 0.0934
CCATCTAC | -0.15
CTTTAGCC | 0.206
GACAACGA | 0.16
GAGATGCC | 0.0528
ATCAATAC | 0.0586
ACAAACGG | 0.206
AAGAGTAG | 0.013
ACCAACGT | -0.163
AAGTGGGT | -0.0898
ACGGCTAC | 0.171
CCGGACCC | 0.235
AATAAATT | 0.294
ATCTACAA | 0.032
ATAGAGAC | -0.116
GTAGATCA | 0.0991
GTAAGTAA | -0.112
CGAGTAGC | 0.13
AAAAGATC | -0.0129
TGAAGTAA | -0.0474
GGTCGTAA | 0.0853
AGCTTACC | -0.0423
ACGTCACG | -0.168
AAAGCAGT | 0.039
CTTATCTC | 0.053
AATGCCAA | -0.029
ACCTGCCC | -0.125
GGCCCGAC | 0.0318
AACTCTTA | 0.136
TCGATCCA | -0.148
ATGCGCGA | -0.0505
ATCACAAG | 0.00864
AAAGACCC | 0.118
GAAGGCTA | -0.0973
GCTGAAAA | 0.136
CTCCCCTC | -0.186
CTCTTTTC | -0.0404
AAGATGCG | 0.0137
ACTCGCCC | -0.232
CTTGGCGA | -0.211
GCGATCAC | -0.19
AAAAATAT | 0.24
TGACATCA | -0.0407
ACCATCGA | -0.121
GTCAGCAA | -0.0872
TAATTAGA | 0.149
CCTGGAGC | -0.322
TAAGCGAA | 0.0677
GGCCGGAC | 0.294
GGACCCAA | -0.081
TAACCGTA | -0.0723
ATTGATTG | 0.174
GCTTTAAC | 0.0368
CTAGGATA | -0.0114
ACGCTATG | -0.221
GACTTTGC | -0.0657
AAAACATA | 0.158
AGTATCTC | 0.0414
CCCTAAAA | -0.238
GTCGGCCA | -0.145
ACCAAGCG | -0.238
ACGGCACA | 0.0865
GTCCTCCA | -0.165
ACATCCAA | -0.0302
CGCACAAG | -0.0592
CAGGGAGC | -0.304

Following part

Sequence	PBM E-score
CGGGTACG	-0.0897
CTTAGCCA	-0.14
CTCAGTGC	-0.113
CCAGACTA	-0.0362
TACATGTA	0.00046
CCCCCCAC	-0.435
ATGGGACC	-0.27
CCAATTAG	0.0929
AGTAACAC	0.0939
CTAGCGCA	-0.286
CTCGGGAA	0.211
ATCTAATC	0.0898
CTTGAGTA	-0.0342
ACAGAAGG	-0.135
CTAGTAAG	0.0138
ACGCTACT	0.0174
ATTTATAA	0.326
CAGGCAGC	-0.202
AGATCATC	0.0775
ACGAAGAG	-0.023
AGAGCTAA	-0.0157
CCGGATGC	0.331
ATACTCTG	0.006
ATAGTTGA	0.0411
AAGGAGAA	0.00097

Sequence	PBM E-score
CTTGATTC	0.0724
ACCCAACA	-0.227
ATAACACA	0.103
ATTGTTGA	0.141
AAGTAGTG	-0.211
ATGCAAGC	-0.0528
GGTAGCAA	-0.223
ATAGATCA	0.216
AGTTAGAC	0.123
CTGGCAAC	-0.215
AGTCAGAA	-0.0922
TATCTAGA	0.0545
CATGATGG	-0.267
ACAGCCTG	-0.102
CGGCACAC	0.205
GAAGCAGC	-0.0796
AGGTAGCC	-0.123
CATCGGCC	0.115
CATATTGC	-0.252
TCATATAA	0.11
CCACCAGA	-0.229
TAAATTCA	-0.0563
GTACATCA	0.016
ATCGAATA	-0.0754
AGCTGCCT	-0.232

Sequence	PBM E-score
CTCTAGAA	-0.166
GGGAGAGA	-0.325
AGCTTTAG	-0.0783
CCTTGGGC	-0.169
GAATTGGC	-0.0767
ATAAACAT	0.116
GTATGCAA	0.0937
ACCGTGTA	-0.0437
TAAGCTGA	0.0286
CAATCCAC	0.0253
AACCGGTA	0.0801
TAACCTAA	0.077
CTGAAGAA	-0.114
CTCACCAC	-0.195
ATATGAGA	-0.00418
CCCATTAG	-0.347
ACTAATTG	0.0671
GAGAGTGC	-0.191
ACGTCGAG	-0.295
